## Percent effect of library compounds

Source: ChEMBL document CHEMBL3988442, “University of Dundee, Small-Polar-MMV Screening Library” (2021).

Mtb cholesterol medium: 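Phenotypic screen: M. tuberculosis growth, cholesterol and DPPC medium, 4 days; the read-out is not stated. Compounds at 50 µM. Higher reads as more growth inhibition (inferred: compounds with an IC50 in retests scored well above the rest). About 69,000 compounds were tested under these conditions; 0.54% (about 370) showed 50% or more at least once.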
Mtb glucose medium: 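Whole-cell growth test on Mycobacterium tuberculosis, read after 3 days in glucose-containing 7H9 medium; the read-out is not stated. Concentration: 50 µM. Direction is inferred from retests: higher values go with more growth inhibition. About 69,000 compounds were tested under these conditions; 1.1% (about 760) showed 50% or more at least once.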

Each number is a percent effect as filed.
The record does not define 0% and 100%; most values in the screen are far below 50% and negative numbers occur (in some assays of this library far below -100).
Compounds were drawn at random from those tested, without regard to their results.
Two or more numbers in one place are separate tests of the same structure; such repeats can differ widely.

{"structure": "COc1cccc(OC2CN(C(=O)c3sccc3C)C2)c1", "Mtb cholesterol medium": -4.633, "Mtb glucose medium": "-31.26 & 15.13"}
{"structure": "Cn1cc(NS(=O)(=O)c2ccc(C(F)(F)F)cc2)ccc1=O", "Mtb cholesterol medium": -19.59, "Mtb glucose medium": "-50.6 & -5.212"}
{"structure": "CNc1cc(CNC(=O)c2ccccc2)nc(-c2ccncc2)n1", "Mtb cholesterol medium": -6.382, "Mtb glucose medium": 32.61}
{"structure": "O=C(O)C(F)(F)F.O=C(O)C(F)(F)F.O=C(O)C(F)(F)F.c1ccc(CN2CCc3nnc(COc4ccccn4)n3CC2)nc1", "Mtb cholesterol medium": -36.73, "Mtb glucose medium": -4.483}
{"structure": "CN(CC(=O)NCC(CCO)c1ccccc1)C(=O)OC(C)(C)C", "stereo": "stereo not shown", "Mtb cholesterol medium": "14.68 & -2.852", "Mtb glucose medium": -59.04}
{"structure": "COc1cccc(C2CC(=O)Nc3nc(N)sc32)c1OC", "stereo": "stereo not shown", "Mtb cholesterol medium": 6.261, "Mtb glucose medium": "16.58 & 46.43"}
{"structure": "[H][C@]12CC[C@]([H])(CN(C3Cc4ccccc4C3)C1)N(C(=O)CCO)C2", "Mtb cholesterol medium": -15.37, "Mtb glucose medium": "-9.493 & -0.4034"}
{"structure": "CCc1nc(CN(C)C2CCN(Cc3nc(C4CC4)no3)C2)no1", "stereo": "stereo not shown", "Mtb cholesterol medium": -46.32, "Mtb glucose medium": -41.94}
{"structure": "CCN(Cc1cc(Cl)ccc1OC)Cc1ncnn1CC", "Mtb cholesterol medium": -10.79, "Mtb glucose medium": "4.931 & -9.652"}
{"structure": "Cc1cc(C)cc(OCC(=O)N2CCCC2)c1", "Mtb cholesterol medium": 19.53, "Mtb glucose medium": 35.14}
{"structure": "CCNc1nc(C(=O)N(C)Cc2nc(CC)no2)cs1", "Mtb cholesterol medium": -1.946, "Mtb glucose medium": -16.54}
{"structure": "CC(C)CCn1c(=O)nc2n1C(=O)N(c1ccc(F)cc1)C2", "Mtb cholesterol medium": -16.69, "Mtb glucose medium": "-7.161 & -28.47"}
{"structure": "O=C1OCCC1N1CCN(C(=O)Cc2c[nH]c3ccccc23)CC1", "stereo": "stereo not shown", "Mtb cholesterol medium": 7.816, "Mtb glucose medium": -0.3944}
{"structure": "CCCNC(=O)CCC(=O)N1CCC(c2noc3cc(F)ccc23)CC1", "Mtb cholesterol medium": -3.995, "Mtb glucose medium": -0.7817}
{"structure": "O=C(CCc1ccc(Br)cc1F)NS(=O)(=O)c1ccc2c(c1)OCCO2", "Mtb cholesterol medium": -15.29, "Mtb glucose medium": -13.07}
{"structure": "CCCC(NC(=O)c1ccccc1Br)c1nnn[nH]1", "stereo": "stereo not shown", "Mtb cholesterol medium": "-13.19 & 0.3367", "Mtb glucose medium": 10.78}
{"structure": "CNc1cc(C)nc(N2CCC3(CC2)[C@H](O)C[C@@H]3OCCN(C)C)n1", "Mtb cholesterol medium": 4.363, "Mtb glucose medium": 32.04}
{"structure": "Cc1cc(NC(=O)Cn2nc(C)c(C#N)c2N)ccc1Br", "Mtb cholesterol medium": "4.512 & -1.768", "Mtb glucose medium": "29.31 & 11.63"}
{"structure": "COc1cccc(-c2n[nH]c3c2CN(C(=O)c2cc(C)n(C)n2)CC3)c1", "Mtb cholesterol medium": "-0.3773 & -0.2512", "Mtb glucose medium": 4.345}
{"structure": "Cc1ncc(CN2CCOC(c3ccc(-c4ccccc4F)cn3)C2)s1", "stereo": "stereo not shown", "Mtb cholesterol medium": -36.07, "Mtb glucose medium": 0.4749}
{"structure": "CCCC(O)CN1CCC(=O)N(CCOC)Cc2cc3c(cc21)OCO3", "stereo": "stereo not shown", "Mtb cholesterol medium": -3.312, "Mtb glucose medium": -10.72}
{"structure": "Cc1noc(C2CN(Cc3ccc4c(c3)CCO4)C2)n1.O=C(O)C(=O)O", "Mtb cholesterol medium": 8.393, "Mtb glucose medium": "4.259 & 25.13"}
{"structure": "Cn1nc(C#N)c2c1CN(C(=O)c1cccnc1)CCC2.O=C(O)C(F)(F)F", "Mtb cholesterol medium": -10.08, "Mtb glucose medium": -23.63}
{"structure": "CC(=O)N1CCN([C@@H]2CN(C(=O)c3ccccc3)C[C@H]2O)CC1", "Mtb cholesterol medium": -5.259, "Mtb glucose medium": -15.88}
{"structure": "COc1cccc2c1OCC(C(=O)NC1CCN(S(C)(=O)=O)CC1)C2", "stereo": "stereo not shown", "Mtb cholesterol medium": -8.417, "Mtb glucose medium": -15.91}

Repeated from the top, 3 entries:

- COc1cccc(OC2CN(C(=O)c3sccc3C)C2)c1 : Mtb cholesterol medium: -4.633%; Mtb glucose medium: -31.26% & 15.13%
- Cn1cc(NS(=O)(=O)c2ccc(C(F)(F)F)cc2)ccc1=O : Mtb cholesterol medium: -19.59%; Mtb glucose medium: -50.6% & -5.212%
- CNc1cc(CNC(=O)c2ccccc2)nc(-c2ccncc2)n1 : Mtb cholesterol medium: -6.382%; Mtb glucose medium: 32.61%